Laboratory results reported in paper PMC6393503.
These are yes or no findings as the source states them, for the method shown. In cells and extracts the contact can be indirect. Some entries that bind do so weakly or less than the wild type.

By UniProt entry, the sequences of proteins in these tests, tags left out.
UniProt P33527: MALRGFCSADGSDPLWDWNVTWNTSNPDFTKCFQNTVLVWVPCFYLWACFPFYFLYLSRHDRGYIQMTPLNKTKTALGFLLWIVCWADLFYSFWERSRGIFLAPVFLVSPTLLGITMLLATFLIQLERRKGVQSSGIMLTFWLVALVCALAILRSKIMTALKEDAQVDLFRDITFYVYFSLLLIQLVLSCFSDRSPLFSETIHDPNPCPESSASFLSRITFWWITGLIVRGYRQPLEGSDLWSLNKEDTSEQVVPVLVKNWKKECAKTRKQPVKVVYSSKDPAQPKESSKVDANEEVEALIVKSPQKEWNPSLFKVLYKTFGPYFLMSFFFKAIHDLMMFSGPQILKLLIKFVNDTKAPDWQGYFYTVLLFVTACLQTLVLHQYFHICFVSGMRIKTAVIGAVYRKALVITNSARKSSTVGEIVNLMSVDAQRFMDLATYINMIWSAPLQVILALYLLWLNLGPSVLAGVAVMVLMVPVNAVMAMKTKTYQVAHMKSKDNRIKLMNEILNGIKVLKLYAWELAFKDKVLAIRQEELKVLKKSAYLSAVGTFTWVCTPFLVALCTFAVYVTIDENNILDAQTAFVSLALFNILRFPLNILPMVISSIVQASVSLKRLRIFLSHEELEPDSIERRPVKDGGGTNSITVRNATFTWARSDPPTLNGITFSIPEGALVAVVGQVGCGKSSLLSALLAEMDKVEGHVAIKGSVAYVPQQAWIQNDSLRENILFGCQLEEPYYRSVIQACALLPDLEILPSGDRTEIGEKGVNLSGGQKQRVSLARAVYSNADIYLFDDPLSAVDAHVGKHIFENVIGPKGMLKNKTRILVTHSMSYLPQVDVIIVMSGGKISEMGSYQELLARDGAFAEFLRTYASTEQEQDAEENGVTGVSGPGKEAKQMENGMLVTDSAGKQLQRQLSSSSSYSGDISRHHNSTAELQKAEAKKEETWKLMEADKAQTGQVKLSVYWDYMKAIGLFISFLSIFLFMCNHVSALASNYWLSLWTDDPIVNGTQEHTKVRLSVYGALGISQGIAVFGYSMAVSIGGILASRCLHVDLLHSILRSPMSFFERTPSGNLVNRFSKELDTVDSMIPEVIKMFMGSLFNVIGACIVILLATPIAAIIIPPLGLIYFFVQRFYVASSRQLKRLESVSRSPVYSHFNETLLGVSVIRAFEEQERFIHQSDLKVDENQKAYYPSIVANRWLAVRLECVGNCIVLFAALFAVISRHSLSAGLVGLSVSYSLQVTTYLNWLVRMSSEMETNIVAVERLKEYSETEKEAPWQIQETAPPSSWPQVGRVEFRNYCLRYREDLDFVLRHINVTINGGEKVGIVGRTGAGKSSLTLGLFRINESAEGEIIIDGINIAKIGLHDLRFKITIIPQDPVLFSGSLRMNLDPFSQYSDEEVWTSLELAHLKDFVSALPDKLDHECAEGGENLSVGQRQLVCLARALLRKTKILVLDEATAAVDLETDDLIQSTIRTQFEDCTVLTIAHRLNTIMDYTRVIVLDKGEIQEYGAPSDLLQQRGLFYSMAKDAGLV
UniProt Q8NA03: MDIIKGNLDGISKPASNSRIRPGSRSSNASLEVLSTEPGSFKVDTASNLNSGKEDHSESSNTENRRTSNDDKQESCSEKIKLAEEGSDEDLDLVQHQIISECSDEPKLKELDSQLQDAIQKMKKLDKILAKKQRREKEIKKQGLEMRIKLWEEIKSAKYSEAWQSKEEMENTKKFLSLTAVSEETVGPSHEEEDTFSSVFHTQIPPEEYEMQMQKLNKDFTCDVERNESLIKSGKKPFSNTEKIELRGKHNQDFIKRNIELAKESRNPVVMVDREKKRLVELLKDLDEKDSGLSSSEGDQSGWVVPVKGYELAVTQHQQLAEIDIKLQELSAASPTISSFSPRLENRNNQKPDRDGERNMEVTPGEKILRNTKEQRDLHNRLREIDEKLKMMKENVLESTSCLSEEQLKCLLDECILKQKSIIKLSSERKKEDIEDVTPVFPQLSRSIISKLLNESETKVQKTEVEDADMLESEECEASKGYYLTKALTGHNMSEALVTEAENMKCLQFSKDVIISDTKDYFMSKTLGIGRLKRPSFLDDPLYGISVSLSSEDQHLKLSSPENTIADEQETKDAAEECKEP

Biological target: multidrug resistance protein 1 (MRP1) (human (endogenous in MDA-MB-231 and SKBR3)) (UniProt P33527)
Assay: co-IP; endogenous proteins in MDA-MB-231 and SKBR3 cell lysates; immunoprecipitate immunoblotted with anti-FSIP1 or anti-MRP1 antibody; IgG as negative control

binding: binds
Substance: Fibrous sheath-interacting protein 1 (FSIP1) (from UniProt Q8NA03 1-581)
